Measurements taken from the supplement of paper PMC12067093, “Discovery and optimisation of a covalent ligand for TRIM25 and its application to targeted protein ubiquitination” (Chemical Science, 2025).
Some of the results follow.

Sequences of proteins named here, by UniProt entry; tags and fusion partners are left off. A change or cut given only in a name is not applied to a line headed by its entry.
UniProt Q9H583: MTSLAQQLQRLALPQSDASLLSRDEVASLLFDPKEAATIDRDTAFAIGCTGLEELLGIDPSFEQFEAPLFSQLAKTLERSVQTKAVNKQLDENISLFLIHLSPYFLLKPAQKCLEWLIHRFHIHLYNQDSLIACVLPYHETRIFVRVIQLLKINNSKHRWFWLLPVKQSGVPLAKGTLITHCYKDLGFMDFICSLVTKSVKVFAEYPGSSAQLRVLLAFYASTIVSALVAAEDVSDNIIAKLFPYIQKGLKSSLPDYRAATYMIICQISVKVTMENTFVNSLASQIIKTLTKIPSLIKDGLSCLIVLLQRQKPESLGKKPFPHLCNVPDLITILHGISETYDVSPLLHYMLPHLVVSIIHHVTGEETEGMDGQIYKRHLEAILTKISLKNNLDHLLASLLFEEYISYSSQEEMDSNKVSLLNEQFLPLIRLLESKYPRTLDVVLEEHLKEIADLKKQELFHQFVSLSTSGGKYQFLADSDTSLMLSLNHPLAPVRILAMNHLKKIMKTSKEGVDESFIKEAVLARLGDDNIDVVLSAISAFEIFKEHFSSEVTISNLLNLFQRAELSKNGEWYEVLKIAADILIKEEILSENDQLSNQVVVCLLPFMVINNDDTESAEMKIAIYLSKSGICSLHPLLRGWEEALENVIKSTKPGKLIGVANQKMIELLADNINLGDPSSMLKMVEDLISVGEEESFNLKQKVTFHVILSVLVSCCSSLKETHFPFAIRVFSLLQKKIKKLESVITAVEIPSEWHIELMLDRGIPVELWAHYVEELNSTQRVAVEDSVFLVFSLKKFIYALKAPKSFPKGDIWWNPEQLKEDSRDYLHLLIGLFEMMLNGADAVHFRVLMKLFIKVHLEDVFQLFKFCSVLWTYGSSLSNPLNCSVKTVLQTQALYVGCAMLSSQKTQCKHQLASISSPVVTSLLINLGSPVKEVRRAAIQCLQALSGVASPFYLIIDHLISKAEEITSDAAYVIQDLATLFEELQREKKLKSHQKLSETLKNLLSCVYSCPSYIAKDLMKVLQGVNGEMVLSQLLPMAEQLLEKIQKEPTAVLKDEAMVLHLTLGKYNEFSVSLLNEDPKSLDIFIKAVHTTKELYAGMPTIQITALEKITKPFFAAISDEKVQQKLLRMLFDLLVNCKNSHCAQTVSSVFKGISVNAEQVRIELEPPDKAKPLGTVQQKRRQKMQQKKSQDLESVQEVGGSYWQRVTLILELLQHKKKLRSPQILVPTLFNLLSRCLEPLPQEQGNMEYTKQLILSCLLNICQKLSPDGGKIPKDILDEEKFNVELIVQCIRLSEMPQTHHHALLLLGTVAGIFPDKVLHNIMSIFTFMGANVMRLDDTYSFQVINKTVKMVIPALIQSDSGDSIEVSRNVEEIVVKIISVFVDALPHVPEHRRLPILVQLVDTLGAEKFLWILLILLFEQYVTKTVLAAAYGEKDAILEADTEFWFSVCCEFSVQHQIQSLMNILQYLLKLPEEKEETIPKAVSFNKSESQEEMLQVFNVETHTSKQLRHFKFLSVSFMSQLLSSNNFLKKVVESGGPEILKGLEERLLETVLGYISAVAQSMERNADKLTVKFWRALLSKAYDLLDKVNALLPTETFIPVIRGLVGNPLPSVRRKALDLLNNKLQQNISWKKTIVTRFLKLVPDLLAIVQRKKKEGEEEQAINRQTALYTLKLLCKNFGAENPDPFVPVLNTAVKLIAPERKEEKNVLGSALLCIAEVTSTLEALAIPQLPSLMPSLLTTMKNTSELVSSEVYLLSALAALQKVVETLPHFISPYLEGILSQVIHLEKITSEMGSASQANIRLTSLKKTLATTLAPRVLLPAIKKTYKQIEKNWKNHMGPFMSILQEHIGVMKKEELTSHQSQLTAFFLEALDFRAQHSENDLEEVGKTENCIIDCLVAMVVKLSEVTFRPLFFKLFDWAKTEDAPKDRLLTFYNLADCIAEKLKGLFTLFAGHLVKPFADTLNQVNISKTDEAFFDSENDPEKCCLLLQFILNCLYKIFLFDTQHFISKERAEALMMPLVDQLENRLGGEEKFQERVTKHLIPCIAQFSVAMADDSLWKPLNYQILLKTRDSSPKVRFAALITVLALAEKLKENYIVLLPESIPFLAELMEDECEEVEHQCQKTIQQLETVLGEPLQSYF
UniProt P19367: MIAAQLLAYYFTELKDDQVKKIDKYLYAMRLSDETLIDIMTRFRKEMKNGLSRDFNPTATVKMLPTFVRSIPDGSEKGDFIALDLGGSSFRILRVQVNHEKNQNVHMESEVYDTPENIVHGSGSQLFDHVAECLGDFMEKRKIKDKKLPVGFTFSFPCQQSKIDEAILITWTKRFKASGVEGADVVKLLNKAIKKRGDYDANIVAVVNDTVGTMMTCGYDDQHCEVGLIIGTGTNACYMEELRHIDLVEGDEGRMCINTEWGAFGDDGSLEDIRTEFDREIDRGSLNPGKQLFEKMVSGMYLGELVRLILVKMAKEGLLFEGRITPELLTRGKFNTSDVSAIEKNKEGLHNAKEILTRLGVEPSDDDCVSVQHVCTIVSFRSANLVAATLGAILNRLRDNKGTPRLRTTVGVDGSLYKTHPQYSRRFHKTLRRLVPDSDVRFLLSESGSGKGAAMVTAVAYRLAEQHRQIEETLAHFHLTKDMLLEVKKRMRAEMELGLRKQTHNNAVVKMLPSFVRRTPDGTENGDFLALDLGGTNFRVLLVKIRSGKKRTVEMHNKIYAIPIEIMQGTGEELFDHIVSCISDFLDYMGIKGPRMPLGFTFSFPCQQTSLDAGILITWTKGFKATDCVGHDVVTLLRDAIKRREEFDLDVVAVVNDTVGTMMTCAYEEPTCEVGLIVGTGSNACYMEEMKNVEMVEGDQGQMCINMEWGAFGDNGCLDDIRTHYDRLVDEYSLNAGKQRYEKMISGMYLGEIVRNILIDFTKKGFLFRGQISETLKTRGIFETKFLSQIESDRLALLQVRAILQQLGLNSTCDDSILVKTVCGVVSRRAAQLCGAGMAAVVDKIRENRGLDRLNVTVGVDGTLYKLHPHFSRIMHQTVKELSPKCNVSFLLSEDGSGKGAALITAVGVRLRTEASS
UniProt P52789: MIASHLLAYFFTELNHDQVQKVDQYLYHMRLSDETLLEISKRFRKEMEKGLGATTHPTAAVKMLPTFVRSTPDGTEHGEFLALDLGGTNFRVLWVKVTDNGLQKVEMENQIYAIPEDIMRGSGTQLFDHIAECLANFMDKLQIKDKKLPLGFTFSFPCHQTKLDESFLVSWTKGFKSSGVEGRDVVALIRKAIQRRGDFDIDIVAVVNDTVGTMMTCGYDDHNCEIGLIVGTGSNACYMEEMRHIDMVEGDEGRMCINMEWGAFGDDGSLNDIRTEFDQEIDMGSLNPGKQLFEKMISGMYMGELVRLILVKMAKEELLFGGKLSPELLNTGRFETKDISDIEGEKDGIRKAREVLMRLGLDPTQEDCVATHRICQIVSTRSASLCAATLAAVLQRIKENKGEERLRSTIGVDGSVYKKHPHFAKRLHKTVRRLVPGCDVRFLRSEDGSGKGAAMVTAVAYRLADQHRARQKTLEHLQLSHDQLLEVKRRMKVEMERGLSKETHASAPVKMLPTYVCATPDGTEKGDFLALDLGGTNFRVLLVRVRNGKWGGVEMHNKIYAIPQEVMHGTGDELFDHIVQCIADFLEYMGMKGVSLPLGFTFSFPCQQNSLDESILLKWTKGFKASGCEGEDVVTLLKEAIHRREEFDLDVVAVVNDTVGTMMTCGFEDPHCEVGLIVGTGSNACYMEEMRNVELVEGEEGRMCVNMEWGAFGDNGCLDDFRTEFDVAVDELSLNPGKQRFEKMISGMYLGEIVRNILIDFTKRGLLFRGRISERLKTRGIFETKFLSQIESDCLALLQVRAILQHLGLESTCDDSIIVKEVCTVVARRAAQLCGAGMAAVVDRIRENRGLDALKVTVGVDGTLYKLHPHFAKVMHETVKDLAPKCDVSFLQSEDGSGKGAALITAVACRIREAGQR
UniProt P42694: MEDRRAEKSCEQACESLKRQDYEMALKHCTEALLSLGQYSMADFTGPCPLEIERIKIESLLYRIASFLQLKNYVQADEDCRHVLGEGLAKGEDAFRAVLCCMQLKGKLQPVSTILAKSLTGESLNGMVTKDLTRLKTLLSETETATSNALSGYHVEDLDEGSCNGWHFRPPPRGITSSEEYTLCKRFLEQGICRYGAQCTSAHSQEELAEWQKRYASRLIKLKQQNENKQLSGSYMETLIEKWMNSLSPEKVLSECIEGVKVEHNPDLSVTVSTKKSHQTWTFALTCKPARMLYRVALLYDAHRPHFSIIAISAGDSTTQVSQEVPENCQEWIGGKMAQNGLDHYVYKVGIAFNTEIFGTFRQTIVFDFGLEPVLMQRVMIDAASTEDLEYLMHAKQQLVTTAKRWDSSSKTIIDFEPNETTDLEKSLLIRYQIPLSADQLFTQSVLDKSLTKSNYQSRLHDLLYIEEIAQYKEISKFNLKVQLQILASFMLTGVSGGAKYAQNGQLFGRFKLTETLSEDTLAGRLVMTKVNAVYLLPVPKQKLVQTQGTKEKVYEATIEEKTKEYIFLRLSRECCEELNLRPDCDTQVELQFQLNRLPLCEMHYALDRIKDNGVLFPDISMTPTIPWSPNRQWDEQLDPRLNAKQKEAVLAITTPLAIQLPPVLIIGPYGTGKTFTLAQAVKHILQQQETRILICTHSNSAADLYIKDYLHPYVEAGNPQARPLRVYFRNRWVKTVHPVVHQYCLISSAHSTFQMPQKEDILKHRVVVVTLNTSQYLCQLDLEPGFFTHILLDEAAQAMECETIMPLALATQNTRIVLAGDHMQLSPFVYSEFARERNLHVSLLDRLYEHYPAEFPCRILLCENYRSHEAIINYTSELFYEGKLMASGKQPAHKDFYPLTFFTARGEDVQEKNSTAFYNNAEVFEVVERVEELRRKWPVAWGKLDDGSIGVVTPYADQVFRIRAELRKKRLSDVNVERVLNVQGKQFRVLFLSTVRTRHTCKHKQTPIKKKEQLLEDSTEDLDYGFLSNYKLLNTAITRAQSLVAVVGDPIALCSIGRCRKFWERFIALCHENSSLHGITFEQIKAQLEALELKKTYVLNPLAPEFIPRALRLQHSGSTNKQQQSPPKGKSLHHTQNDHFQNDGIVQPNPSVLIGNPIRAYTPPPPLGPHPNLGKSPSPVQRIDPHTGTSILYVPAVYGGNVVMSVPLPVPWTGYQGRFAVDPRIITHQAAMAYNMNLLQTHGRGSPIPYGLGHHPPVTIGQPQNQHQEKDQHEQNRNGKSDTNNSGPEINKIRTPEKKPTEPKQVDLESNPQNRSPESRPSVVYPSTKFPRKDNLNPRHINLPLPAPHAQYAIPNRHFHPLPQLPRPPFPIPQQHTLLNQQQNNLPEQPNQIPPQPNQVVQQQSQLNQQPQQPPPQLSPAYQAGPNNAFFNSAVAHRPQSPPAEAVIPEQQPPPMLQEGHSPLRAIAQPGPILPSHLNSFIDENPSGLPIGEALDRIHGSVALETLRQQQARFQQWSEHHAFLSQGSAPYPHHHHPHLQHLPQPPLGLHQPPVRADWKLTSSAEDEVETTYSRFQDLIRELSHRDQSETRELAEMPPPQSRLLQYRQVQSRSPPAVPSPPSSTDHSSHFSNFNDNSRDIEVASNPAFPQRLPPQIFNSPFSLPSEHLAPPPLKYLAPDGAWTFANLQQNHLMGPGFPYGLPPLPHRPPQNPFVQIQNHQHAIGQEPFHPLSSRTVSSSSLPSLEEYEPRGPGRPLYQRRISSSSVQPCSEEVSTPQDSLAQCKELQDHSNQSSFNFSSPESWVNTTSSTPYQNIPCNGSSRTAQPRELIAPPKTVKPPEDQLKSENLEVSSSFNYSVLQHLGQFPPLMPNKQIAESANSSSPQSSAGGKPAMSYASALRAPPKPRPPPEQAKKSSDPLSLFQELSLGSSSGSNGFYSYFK
UniProt Q01581: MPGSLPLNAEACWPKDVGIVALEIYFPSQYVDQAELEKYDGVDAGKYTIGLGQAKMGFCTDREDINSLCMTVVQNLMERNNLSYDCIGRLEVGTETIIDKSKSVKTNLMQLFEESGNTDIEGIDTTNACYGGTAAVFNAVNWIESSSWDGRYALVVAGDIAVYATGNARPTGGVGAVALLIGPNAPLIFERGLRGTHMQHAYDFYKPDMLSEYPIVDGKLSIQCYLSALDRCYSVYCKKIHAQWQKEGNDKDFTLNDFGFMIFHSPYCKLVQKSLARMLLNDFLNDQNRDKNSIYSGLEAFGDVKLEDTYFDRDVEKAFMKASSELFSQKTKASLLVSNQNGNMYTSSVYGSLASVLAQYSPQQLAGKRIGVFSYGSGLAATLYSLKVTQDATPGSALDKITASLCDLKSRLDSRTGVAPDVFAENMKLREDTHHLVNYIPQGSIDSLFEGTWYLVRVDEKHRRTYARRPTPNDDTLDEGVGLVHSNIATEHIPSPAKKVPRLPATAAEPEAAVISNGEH

Compound: Cc1cc(ccc1-c1ccccc1)C(=O)N1CCCN(CC1)C(=O)CCl [compound 10]
Assay: probe-labelled cysteine peptide fold change vs DMSO (competition) (log2 fold change); higher = less target engagement (more negative = stronger competition)
Details: THP-1, incubation time: 4 h
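Further: competitive profiling in live THP-1 cells: cysteine peptides tagged with an iodoacetamide desthiobiotin (IA-DTB) probe, intensity after compound treatment relative to DMSO-treated cells.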

| Target | probe-labelled cysteine peptide fold change (10 µM) | probe-labelled cysteine peptide fold change (50 µM) |
| --- | --- | --- |
| HEATR1_Q9H583_631_SGICSLHPLLR (UniProt Q9H583) | 0.22 | 0.231 |
| HEBP1_Q9NRV9_168_GDIYFCTGYDPPMKPYGR (UniProt Q9NRV9) | -0.0415 | -0.553 |
| HERC1_Q15751_1991_LFSLLSDCMWETPIAQAK (UniProt Q15751) | 0.35 | 0.0151 |
| HECTD1_Q9ULT8_1955_DFCEHGTK (UniProt Q9ULT8) | 0.0397 | -0.0184 |
| HLA-A_P01891_363_GGSYSQAASSDSAQGSDVSLTACK (UniProt P01891) | -0.379 | -0.0445 |
| HCFC1_P51610_1886+1895_TCLPGFPGAPCAIK (UniProt P51610) | -0.0598 | -0.236 |
| HECTD4_Q9Y4D8_3836_ELQNVECVTAVR (UniProt Q9Y4D8) | 0.0622 | -0.122 |
| HGS_O14964_190_ACGQIFCGK (UniProt O14964) | -0.0495 | -0.186 |
| HECTD4_Q9Y4D8-5_275_LLLLEGGPGSPSCLLGGK (UniProt Q9Y4D8) | -0.0542 | 0.193 |
| HDHD2_Q9H0R4_244_INPPPYLTCESFPHAVDHILQHLL (UniProt Q9H0R4) | -0.0718 | 0.187 |
| HIRA_P54198_867_QDSLAQCADFR (UniProt P54198) | 0.0167 | 0.112 |
| HK1_P19367_834_RAAQLCGAGMAAVVDK (UniProt P19367) | 0.0405 | -0.415 |
| HK1_P19367_158_LPVGFTFSFPCQQSK (UniProt P19367) | -0.0518 | -0.0955 |
| HK2_P52789_813_AILQHLGLESTCDDSIIVK (UniProt P52789) | 0.17 | 0.242 |
| HELZ_P42694_601_LPLCEMHYALDR (UniProt P42694) | -0.00554 | 0.166 |
| HMGCS1_Q01581_406_ITASLCDLK (UniProt Q01581) | -0.096 | -0.145 |
| HECTD4_Q9Y4D8_757_AMWGFACTVR (UniProt Q9Y4D8) | 0.135 | 0.389 |
| HENMT1_Q5T8I9_56_KVADLGCGDTSLLR (UniProt Q5T8I9) | -0.0187 | -0.456 |
| HDAC1_Q13547_12_VCYYYDGDVGNYYYGQGHPMKPHR (UniProt Q13547) | -0.104 | -0.414 |
| HECTD4_Q9Y4D8_2097_VYFTYCGQR (UniProt Q9Y4D8) | 0.0658 | 0.211 |
| HK3_P52790_634_ASDCEGQDVVSLLR (UniProt P52790) | 0.136 | 0.116 |
| HERC4_Q5GLZ8_58+60_HTVFVLDDGTVYTCGCNDLGQLGHEK (UniProt Q5GLZ8) | -0.0133 | -1.05 |

| Target | probe-labelled cysteine peptide fold change (10 µM) | probe-labelled cysteine peptide fold change (50 µM) |
| --- | --- | --- |
| HDAC8_Q9BY41_352_TLSSEIPDHEFFTAYGPDYVLEITPSCRPDR (UniProt Q9BY41) | 0.0267 | -0.385 |
| HECTD3_Q5T447_592_DMYVPNPSCR (UniProt Q5T447) | -0.0549 | 0.0115 |
| HDAC3_O15379_279_GHGECVEYVK (UniProt O15379) | 0.0141 | 0.228 |
| HK2_P52789_909_GAALITAVACR (UniProt P52789) | -0.0759 | 0.143 |
| HEATR3_Q7Z4Q2_20_RPQFSPTGDCQAEAAAAANGTGGEEDDGPAAELLEK (UniProt Q7Z4Q2) | 0.0227 | -0.0305 |
| HCFC2_Q9Y5Z7_125_VKPHPPPSGLPPCPR (UniProt Q9Y5Z7) | -0.132 | 0.158 |
| HDAC4_P56524_669_HQCTCGSSSSHPEHAGR (UniProt P56524) | 0.232 | 0.528 |
| HK3_P52790_269_VCVSVEWGSFSDDGALGPVLTTFDHTLDHESLNPGAQR (UniProt P52790) | 0.11 | -0.559 |
| HMGCR_P04035_382_CDSVEEETGINR (UniProt P04035) | -0.0763 | -0.0428 |
| HEATR5B_Q9P2D3_718_SLCHYDDSVLLGSWLQETDHK (UniProt Q9P2D3) | 0.0138 | -0.00101 |
| HEATR1_Q9H583_1942_LLTFYNLADCIAEK (UniProt Q9H583) | -0.246 | 0.34 |
| HCK_P08631_482_MPRPENCPEELYNIMMR (UniProt P08631) | 0.0136 | -0.146 |
| HEATR3_Q7Z4Q2_655_GNYSTDQLCVLDNVK (UniProt Q7Z4Q2) | -0.314 | 0.137 |
| HELZ_P42694_199_YGAQCTSAHSQEELAEWQK (UniProt P42694) | 0.186 | 0.276 |
| HDAC6_Q9UBN7_752_GDPLGGCQVSPEGYAHLTHLLMGLASGR (UniProt Q9UBN7) | -0.0314 | 0.0939 |
| HECA_Q9UBI9_434_ALPVFEQFPLVDGTLFLSPSRHDEIEYDVPCHLQGR (UniProt Q9UBI9) | 0.516 | -0.356 |
| HLA-DRB1_P04229_59_CIYNQEESVRFDSDVGEYR (UniProt P04229) | 0.231 | 0.0126 |
| HDAC10_Q969S8_145_AAANGFCVFNNVAIAAAHAK (UniProt Q969S8) | -0.0333 | -0.0233 |
| HEATR3_Q7Z4Q2_464_KMNTIQCR (UniProt Q7Z4Q2) | 0.0854 | -0.48 |
| HGH1_Q9BTY7_368_GMENLLEVQVPEDVEQQLQQLDCR (UniProt Q9BTY7) | -0.0213 | -0.302 |
| HDAC7_Q8WUI4_533_HQCSCGDNSR (UniProt Q8WUI4) | 0.181 | 0.421 |

Random excerpt: 2 entries already listed

| Target | probe-labelled cysteine peptide fold change (10 µM) | probe-labelled cysteine peptide fold change (50 µM) |
| --- | --- | --- |
| HEATR3_Q7Z4Q2_20_RPQFSPTGDCQAEAAAAANGTGGEEDDGPAAELLEK (UniProt Q7Z4Q2) | 0.0227 | -0.0305 |
| HK3_P52790_269_VCVSVEWGSFSDDGALGPVLTTFDHTLDHESLNPGAQR (UniProt P52790) | 0.11 | -0.559 |
